Binding data for 2 molecules are collected here from article PMC8694054.

No constants are given. Whether binding was seen depends on the method and setting. In cells and extracts the contact can be indirect. Some entries that bind do so weakly or less than the wild type.

One assay has as its target T1, claudin-2, O88552.
T1 chain: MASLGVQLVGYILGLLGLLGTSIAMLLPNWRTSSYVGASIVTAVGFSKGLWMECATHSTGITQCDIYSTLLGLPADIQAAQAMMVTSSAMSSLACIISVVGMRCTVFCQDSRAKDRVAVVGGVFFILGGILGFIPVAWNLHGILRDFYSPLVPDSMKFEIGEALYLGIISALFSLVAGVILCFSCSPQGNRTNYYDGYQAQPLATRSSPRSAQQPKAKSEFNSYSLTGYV
As to the kind of experiment: co-IP; HEK293 cells transiently transfected with the tagged claudins; lysed in an EDTA and nonidet P-40 containing Tris buffer; lysate incubated with mouse anti-myc antibody and precipitated with protein G Dynabeads overnight at 4 °C; eluted with Laemmli buffer; immunoblot with anti-HA, then reprobed with anti-myc; three repeats. The settings on record: remark: other sources report otherwise. Background: Immunoblotting shows a protein as a band on a membrane.

The target in a further assay is T2, claudin-2 (UniProt O88552).
T2 sequence: T1 chain
Described as above.

B1: claudin-2, O88552 1-230 (protein)
chain: T1 chain
Consider B1, for which, in the assay with claudin-2, O88552, the binding result was “binds”.

B2: claudin-12 (protein, UniProt Q9ET43 1-244)
chain: MGCRDVHAATVLSFLCGIASVAGLFAGTLLPNWRKLRLITFNRNEKNLTIYTGLWVKCARYDGSSDCLMYDRTWYLSVDQLDLRVLQFALPLSIVIAMGALLLCLIGMCNTAFNSSVPNIKLAKCLVNSAGCHLVAGLLFFLAGTVSLSPSIWAIFYNSHLNRKFEPVFTFDYAVFVTIASSGGLFMTALLLFVWYCACKSLSSPFWQPLYSHAPGMHTYSQPYSSRSRLSAIEIDIPVVSHST
Regarding B2, the binding entry with claudin-2 is given as “no binding”.
